{"source": "patent US8778894B2", "about": "“Luteolin and diosmin/diosmetin as novel STAT3 inhibitors for treating autism” (University of South Florida, priority 2008, dated 2014)", "system": "STAT3 activation/phosphorylation induced by IL-6", "test": "STAT3 activation induced by IL-6 in cultured neuronal cells (PC12 and N2a), Western blot", "format": "cell-based", "settings": "dose-dependent", "note": "For at least one compound, name, drawing or mass did not settle the structure.", "data": [{"smiles": "COc1ccc(-c2cc(=O)c3c(O)cc(O)cc3o2)cc1O", "note": "[diosmetin]", "values": [{"measurement": "inhibition of activation/phosphorylation of STAT3 induced by IL-6", "value": "inhibit activation/phosphorylation of STAT3"}]}]}
